Results are given in words; binding and its absence hold for the method and conditions named. For some assays here: Binding can be weak; no strength is given.
Key:
[1] = target: c-Met SEMA-PSI (ectodomain fragment) (human); assay: bispecificity ELISA, SEMA-PSI coated, anti-human Cκ detection
[2] = target: c-Met SEMA-PSI (ectodomain fragment) (human); assay: ELISA: SEMA-PSI coated, protein A purified antibody mixture of the co-transfection (parental mAbs and bispecific), HRP goat anti-human Fc, which detects every SEMA-PSI binding mAb of the mixture, 620 nm
[3] = target: c-Met SEMA-PSI (ectodomain fragment) (human); assay: bispecificity ELISA: SEMA-PSI coated, protein A purified antibody mixture, mouse anti-human kappa light chain antibody and HRP donkey anti-mouse, so that only an antibody with a SEMA-PSI binding lambda arm and a kappa arm is seen, 620 nm
[4] = target: c-Met SEMA-PSI (ectodomain fragment) (human); assay: ELISA, SEMA-PSI coated, anti-human Fc detection
[5] = target: c-Met SEMA domain (ectodomain fragment) (human); assay: ELISA, c-Met ectodomains coated at 1 µg/ml, HRP-Protein A
[6] = target: c-Met SEMA-PSI (ectodomain fragment) (human); assay: ELISA: SEMA-PSI coated, parental mAb, HRP goat anti-human Fc, 620 nm
[7] = target: c-Met SEMA domain (ectodomain fragment) (human); assay: ELISA, immobilized SEMA domain, anti-Cκ detection
[8] = target: c-Met SEMA domain (ectodomain fragment) (human); assay: ELISA, immobilized SEMA domain, anti-Fc detection
[9] = target: c-Met SEMA domain (ectodomain fragment) (human); assay: ELISA, immobilized SEMA domain, anti-human Cκ or anti-human Fc detection
[10] = target: c-Met SEMA domain (ectodomain fragment) (human); assay: bispecificity ELISA on immobilized SEMA domain (set-up of FIG. 29), samples taken after each purification step of transfection 6, anti-human Cκ detection, OD620
[11] = target: c-Met SEMA domain (ectodomain fragment) (human); assay: ELISA: immobilized SEMA domain (words of paragraph 768; the drawing of FIG. 29 shows SEMA-PSI), Lambda-Select and Kappa-Select purified bispecific, anti-human Fc detection, OD620
[12] = target: c-Met SEMA domain (ectodomain fragment) (human); assay: ELISA on immobilized SEMA domain, samples taken after each purification step of transfection 6, anti-human Fc detection, which also sees the parental 36C4 format left in the earlier steps, OD620
[13] = target: c-Met SEMA domain (ectodomain fragment) (human); assay: bispecificity ELISA in the set-up of FIG. 29: immobilized SEMA domain (words of paragraph 768; the drawing of FIG. 29 shows SEMA-PSI), Lambda-Select and Kappa-Select purified bispecific, anti-human Cκ detection, OD620
[14] = target: c-Met SEMA domain (ectodomain fragment) (human); assay: bispecificity ELISA on immobilized SEMA domain (set-up of FIG. 29), samples taken after each purification step of transfection 5, anti-human Cκ detection, OD620
[15] = target: c-Met SEMA domain (ectodomain fragment) (human); assay: ELISA on immobilized SEMA domain, samples taken after each purification step of transfection 5, anti-human Fc detection, which also sees the parental 36C4 format left in the earlier steps, OD620
[16] = target: c-Met SEMA-PSI-IPT1-2 (ectodomain fragment) (human); assay: ELISA, coated c-Met ectodomains
[17] = target: c-Met SEMA-PSI-IPT1-2 (ectodomain fragment) (human); assay: ELISA, c-Met ectodomains coated at 1 µg/ml, HRP-Protein A
[18] = target: Decoy c-Met (extracellular domain of human c-Met) (human); assay: ELISA: c-Met ectodomain coated at 1 µg/ml, mAb in three-fold dilutions from 1 µg/ml, HRP-Protein A, TMB, OD 450
[19] = target: c-Met SEMA-PSI-IPT1-2 (ectodomain fragment) (human); assay: as above
[20] = target: c-Met IPT3-4 (ectodomain fragment) (human); assay: ELISA on coated c-Met ectodomains
[21] = target: Decoy c-Met (extracellular domain of human c-Met) (human); assay: ELISA, c-Met ectodomains coated at 1 µg/ml, HRP-Protein A

B1: bispecific antibody 20F1:40B8 (Example 30) (bispecific antibody, V domains shown)
VH 1: EVQVQESGPGLVKPSQTLSLTCTVSGGSMTGNYYAWSWIRQPPGKGLEWMGVIAYDGSTYYSPSLKSRTSISRDTSKNQFSLQLSSVSPEDTAVYYCARGPGWYSGSRNDYWGQGTQVTVSS
VL 1: QSALTQPPSVSGSPGKTVTISCTGTNSDVGYGNYVSWYQQLPGMAPKLLIYDVNRRASGIADRFSGSKSGNTASLTISGLQSEDEGDYHCASYRSANNAVFGGGTHLFVL
VH 2: EVQLVQPGAELRNPGASVKVSCKASGYTFTNYVIDWVRQAPGQGLEWMGRIDPENGGTRYAQKFQGRVTFTADTSTSTAYVELSNLRSEDTAVYYCARLEDYELAYDYWGQGTQVTVSS
VL 2: DIVMTQTPSSVTASAGEKVTINCKSSQSVLLSSNQKNYLAWYQQRLGQSPRLLIYWASTRESGVPDRFSGSGSTTDFTLTISSFQPEDAAVYYCQQGVSFPLTFGQGTKVELK
In the case of B1, the binding [1] is reported as “binds”, the binding [2] is reported as “binds” and the binding [3] is reported as “binds”.

B2: bispecific antibody 20F1:38H10 (Example 30) (bispecific antibody, V domains shown)
VH 1: EVQVQESGPGLVKPSQTLSLTCTVSGGSMTGNYYAWSWIRQPPGKGLEWMGVIAYDGSTYYSPSLKSRTSISRDTSKNQFSLQLSSVSPEDTAVYYCARGPGWYSGSRNDYWGQGTQVTVSS
VL 1: QSALTQPPSVSGSPGKTVTISCTGTNSDVGYGNYVSWYQQLPGMAPKLLIYDVNRRASGIADRFSGSKSGNTASLTISGLQSEDEGDYHCASYRSANNAVFGGGTHLFVL
VH 2: EVQLVQPGVELRNPGASVKVSCKASGYIFTMNSIDWVRQAPGQGLEWMGRIDPEDGGTKYAQKFQGRVTFTADTSTSTAYVELNSLRSEDTAVYYCARVDDYYLGYDYWGQGTQVTVSS
VL 2: EIVMTQSPSSVTASAGEKVTINCKSSQSVLWRSNQKNYLAWYQQRLGQSPRLLISWASIRESGVPDRFSGSGSTTDFTLTISSFQPEDAAVYYCQQGYSFPYTFGSGTRLEIK
With B2 the binding [1] was “binds”, the binding [2] was “binds” and the binding [3] was “binds”.

B3: 20F1 mAb (antibody, human IgG1, V domains shown)
VH: EVQVQESGPGLVKPSQTLSLTCTVSGGSMTGNYYAWSWIRQPPGKGLEWMGVIAYDGSTYYSPSLKSRTSISRDTSKNQFSLQLSSVSPEDTAVYYCARGPGWYSGSRNDYWGQGTQVTVSS
VL: QSALTQPPSVSGSPGKTVTISCTGTNSDVGYGNYVSWYQQLPGMAPKLLIYDVNRRASGIADRFSGSKSGNTASLTISGLQSEDEGDYHCASYRSANNAVFGGGTHLFVL
In the case of B3, the binding [4] is reported as “binds”, the binding [5] is reported as “binds” and the binding [6] is reported as “binds”.

B4: bispecific VHVL36C4+VHVK38H10 (Example 31, sample 6) (bispecific antibody, V domains shown)
VH 1: QVQLVESGPGLVKPSQTLSLTCAVSGGSITTNYYYWSWIRQSPGKGLEWMGVIAYDGSTDYSPSLKSRTSISRDTSKNQFSLQLSSVTPEDTAVYYCARDVRVIATGWATANALDAWGQGTQVTVSS
VL 1: QSVLTQPPSVSGSPGKTVTISCAGTSSDVGYGNYVSWYQQLPGTAPKLLIFAVSYRASGIPDRFSGSKSGNTAFLTISGLQSEDEADYYCASYRSSNNAAVFGGGTHLTVL
VH 2: EVQLVQPGVELRNPGASVKVSCKASGYIFTMNSIDWVRQAPGQGLEWMGRIDPEDGGTKYAQKFQGRVTFTADTSTSTAYVELNSLRSEDTAVYYCARVDDYYLGYDYWGQGTQVTVSS
VL 2: EIVMTQSPSSVTASAGEKVTINCKSSQSVLWRSNQKNYLAWYQQRLGQSPRLLISWASIRESGVPDRFSGSGSTTDFTLTISSFQPEDAAVYYCQQGYSFPYTFGSGTRLEIK
With B4 the binding [7] was “binds”, the binding [8] was “binds” and the binding [9] was “binds”. For the same binder, the binding [10] was “binds”, the binding [11] was “binds” and the binding [12] was “binds”. The binding [13] was “binds”.

B5: bispecific VHVL36C4+VHVK40B8 (Example 31, sample 5) (bispecific antibody, V domains shown)
VH 1: QVQLVESGPGLVKPSQTLSLTCAVSGGSITTNYYYWSWIRQSPGKGLEWMGVIAYDGSTDYSPSLKSRTSISRDTSKNQFSLQLSSVTPEDTAVYYCARDVRVIATGWATANALDAWGQGTQVTVSS
VL 1: QSVLTQPPSVSGSPGKTVTISCAGTSSDVGYGNYVSWYQQLPGTAPKLLIFAVSYRASGIPDRFSGSKSGNTAFLTISGLQSEDEADYYCASYRSSNNAAVFGGGTHLTVL
VH 2: EVQLVQPGAELRNPGASVKVSCKASGYTFTNYVIDWVRQAPGQGLEWMGRIDPENGGTRYAQKFQGRVTFTADTSTSTAYVELSNLRSEDTAVYYCARLEDYELAYDYWGQGTQVTVSS
VL 2: DIVMTQTPSSVTASAGEKVTINCKSSQSVLLSSNQKNYLAWYQQRLGQSPRLLIYWASTRESGVPDRFSGSGSTTDFTLTISSFQPEDAAVYYCQQGVSFPLTFGQGTKVELK
With B5 the binding [7] was “binds”, the binding [8] was “binds” and the binding [9] was “binds”. For the same binder, the binding [14] was “binds”, the binding [11] was “binds” and the binding [15] was “binds”. The binding [13] was “binds”.

B6: 40B8 mAb (antibody, human IgG1, V domains shown)
VH: EVQLVQPGAELRNPGASVKVSCKASGYTFTNYVIDWVRQAPGQGLEWMGRIDPENGGTRYAQKFQGRVTFTADTSTSTAYVELSNLRSEDTAVYYCARLEDYELAYDYWGQGTQVTVSS
VL: DIVMTQTPSSVTASAGEKVTINCKSSQSVLLSSNQKNYLAWYQQRLGQSPRLLIYWASTRESGVPDRFSGSGSTTDFTLTISSFQPEDAAVYYCQQGVSFPLTFGQGTKVELK
For B6, the binding [16] was “binds”, the binding [17] was “binds” and the binding [18] was “binds”. For the same binder, the binding [19] was “binds”.

B7: 12G4 mAb (antibody, human IgG1, V domains shown)
VH: QLQLVESGGGMAQPGGSLKLSCAASGFTFDDYAMTWVRQAPGKGLEWLSTISWNDINTYYAESMKDRFTISRDNAKNTLYLQMNSLESEDTAVYYCAKRRDNYYGTSGEYDYWGQGTQVTVSS
VL: QSALTQPPSVSGTLGKTVTISCAGTSSDIGNYNYVSWYQQLPGTAPKLLIYEVNKRPSGIPDRFSGSKSGNTASLSISGLQSEDEADYYCASYRSSNNVVFGGGTKLTVL
B7 was tested, and the binding [17] was “binds”.

B8: 20A11 mAb (antibody, human IgG1, V domains shown)
VH: QVQLVESGGGLVQPGGSLRLSCAASGFTFDDYAMSWVRQAPGKGLEWVSAISWNGSSTYYAESMKGRFTISRDNAKNTLYLQMNSLKSEDTAVYYCAKDLIGSHDYWGQGTQVTVSS
VL: QAVLTQPPSVSGTLGKTLTISCAGTSSDVGYGNYVSWYQQLPGTAPKLLIYAVSTRASGIPDRFSGSKSGNTASLTISGLQSEDEADYYCASYRSSNNYAFGAGTKLTVL
In the case of B8, the binding [20] is reported as “no binding (tested: 1 µg/ml)” and the binding [21] is reported as “binds”.

B9: 38H10 mAb (antibody, human IgG1, V domains shown)
VH: EVQLVQPGVELRNPGASVKVSCKASGYIFTMNSIDWVRQAPGQGLEWMGRIDPEDGGTKYAQKFQGRVTFTADTSTSTAYVELNSLRSEDTAVYYCARVDDYYLGYDYWGQGTQVTVSS
VL: EIVMTQSPSSVTASAGEKVTINCKSSQSVLWRSNQKNYLAWYQQRLGQSPRLLISWASIRESGVPDRFSGSGSTTDFTLTISSFQPEDAAVYYCQQGYSFPYTFGSGTRLEIK
With B9 the binding [17] was “binds”.

B10: 34H7 mAb (antibody, human IgG1, V domains shown)
VH: ELQLVESGGALVQPGGSLRLSCVESGFTFSSYAMSWVRQAPGKGLEWVSGIYKGGGPKYANSVKGRFTISRDNAKNTLYLQMNSLKPEDTAVYYCAKSGYGSSLGDFGSWGQGTQVTVSS
VL: QAGLTQLSSMSGSPGQTVTITCTGSSSNIGGGYYLSWYQHLPGTAPKLLIYSNINRASGVPDRFSGSTSGISASLTITGLQAEDEADYYCSSWDDSVSGPVFGGGTSLTVL
For B10, the binding [5] was “binds”.
